Results published in PMC11445503.
No constants are given. Whether binding was seen depends on the method and setting. For some assays here: Binding seen in cells or lysates may run through a third protein. Some results given as binding are weak or reduced against the parent protein; the word gives no strength. For some assays here: Where a sequence is shown, tags or fusion partners need not be part of it. Values belong to the molecule of their own block, whether it stands above or below them.

The chains behind the UniProt entries cited, without tags or fusion partners. Where a name states a change or a piece, a line headed by the entry shows the natural chain unless it says otherwise. A line that says so, or that is headed by a name, gives the form on record, which may keep a tag or linker.
UniProt P00519: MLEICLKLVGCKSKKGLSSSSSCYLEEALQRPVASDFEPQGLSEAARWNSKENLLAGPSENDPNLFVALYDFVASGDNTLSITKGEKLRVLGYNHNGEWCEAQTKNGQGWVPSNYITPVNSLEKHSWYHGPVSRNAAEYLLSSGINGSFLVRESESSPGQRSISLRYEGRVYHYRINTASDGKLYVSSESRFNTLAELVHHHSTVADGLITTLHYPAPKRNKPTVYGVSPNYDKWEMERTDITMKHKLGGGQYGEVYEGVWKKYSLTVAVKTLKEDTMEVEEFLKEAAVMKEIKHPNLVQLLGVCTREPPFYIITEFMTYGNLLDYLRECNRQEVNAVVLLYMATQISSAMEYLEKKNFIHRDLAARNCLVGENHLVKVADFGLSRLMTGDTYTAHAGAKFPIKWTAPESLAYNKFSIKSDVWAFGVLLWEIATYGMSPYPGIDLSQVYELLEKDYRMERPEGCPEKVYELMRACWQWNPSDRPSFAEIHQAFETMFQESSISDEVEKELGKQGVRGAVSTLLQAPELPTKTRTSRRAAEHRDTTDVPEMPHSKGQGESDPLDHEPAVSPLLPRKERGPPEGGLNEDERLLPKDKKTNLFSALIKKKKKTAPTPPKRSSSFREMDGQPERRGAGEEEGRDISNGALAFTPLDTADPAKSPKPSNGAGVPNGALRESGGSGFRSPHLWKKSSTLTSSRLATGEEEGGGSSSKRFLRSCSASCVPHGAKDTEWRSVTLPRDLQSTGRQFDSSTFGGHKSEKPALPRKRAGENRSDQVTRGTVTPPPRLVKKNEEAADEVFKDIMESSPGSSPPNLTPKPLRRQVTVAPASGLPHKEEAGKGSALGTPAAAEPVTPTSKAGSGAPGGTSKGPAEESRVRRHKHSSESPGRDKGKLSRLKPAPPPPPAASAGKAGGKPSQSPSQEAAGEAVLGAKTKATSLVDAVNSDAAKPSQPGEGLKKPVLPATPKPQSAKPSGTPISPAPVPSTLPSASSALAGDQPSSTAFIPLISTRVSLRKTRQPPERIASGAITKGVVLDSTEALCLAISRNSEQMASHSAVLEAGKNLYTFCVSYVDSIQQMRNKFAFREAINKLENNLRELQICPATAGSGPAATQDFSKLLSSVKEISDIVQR
Myc-ABL1 (P00519-2, form named): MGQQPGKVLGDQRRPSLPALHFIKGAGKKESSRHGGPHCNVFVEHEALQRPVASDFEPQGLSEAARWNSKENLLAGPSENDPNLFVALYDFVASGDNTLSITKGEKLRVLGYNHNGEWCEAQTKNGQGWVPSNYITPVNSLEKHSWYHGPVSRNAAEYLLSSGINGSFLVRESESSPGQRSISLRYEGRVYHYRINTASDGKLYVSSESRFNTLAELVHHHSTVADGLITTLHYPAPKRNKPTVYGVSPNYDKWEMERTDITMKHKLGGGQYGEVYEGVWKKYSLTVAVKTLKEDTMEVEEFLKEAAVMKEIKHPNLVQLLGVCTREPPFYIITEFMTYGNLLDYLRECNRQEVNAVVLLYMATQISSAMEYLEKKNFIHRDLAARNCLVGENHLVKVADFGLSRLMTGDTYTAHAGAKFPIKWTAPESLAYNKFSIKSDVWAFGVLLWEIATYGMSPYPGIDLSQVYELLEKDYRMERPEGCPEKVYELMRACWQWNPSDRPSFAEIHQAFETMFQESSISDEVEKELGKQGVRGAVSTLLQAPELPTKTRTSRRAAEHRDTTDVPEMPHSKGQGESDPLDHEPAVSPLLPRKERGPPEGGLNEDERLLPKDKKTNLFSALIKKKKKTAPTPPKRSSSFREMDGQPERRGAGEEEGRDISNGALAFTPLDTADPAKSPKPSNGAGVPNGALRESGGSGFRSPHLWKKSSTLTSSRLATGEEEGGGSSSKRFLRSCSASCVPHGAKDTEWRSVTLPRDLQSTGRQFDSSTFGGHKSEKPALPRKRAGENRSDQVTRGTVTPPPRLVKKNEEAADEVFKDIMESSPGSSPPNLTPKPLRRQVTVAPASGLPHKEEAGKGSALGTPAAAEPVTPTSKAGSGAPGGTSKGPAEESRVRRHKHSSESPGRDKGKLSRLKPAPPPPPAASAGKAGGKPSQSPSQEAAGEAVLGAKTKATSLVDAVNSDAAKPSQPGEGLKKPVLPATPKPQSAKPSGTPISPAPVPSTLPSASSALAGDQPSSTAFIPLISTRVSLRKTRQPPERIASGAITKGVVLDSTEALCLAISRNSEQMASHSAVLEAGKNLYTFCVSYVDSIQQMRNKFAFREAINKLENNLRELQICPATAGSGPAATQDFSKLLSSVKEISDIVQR
UniProt Q9UM11: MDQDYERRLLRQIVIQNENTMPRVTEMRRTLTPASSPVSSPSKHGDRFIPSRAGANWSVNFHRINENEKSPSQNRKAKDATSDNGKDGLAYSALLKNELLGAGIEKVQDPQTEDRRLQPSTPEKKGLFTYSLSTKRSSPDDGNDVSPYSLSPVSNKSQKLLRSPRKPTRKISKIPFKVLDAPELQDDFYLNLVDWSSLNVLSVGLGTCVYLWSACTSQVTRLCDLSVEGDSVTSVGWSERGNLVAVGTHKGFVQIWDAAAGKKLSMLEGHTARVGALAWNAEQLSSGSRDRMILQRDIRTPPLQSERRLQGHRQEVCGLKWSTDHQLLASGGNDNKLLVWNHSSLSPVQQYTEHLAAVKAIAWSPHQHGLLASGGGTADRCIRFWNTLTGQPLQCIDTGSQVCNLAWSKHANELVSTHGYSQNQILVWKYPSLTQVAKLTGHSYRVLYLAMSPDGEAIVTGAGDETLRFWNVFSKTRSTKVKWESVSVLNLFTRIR

Key:
[1] = target: T1, FOXM1 (human (endogenous in U2OS, HeLa, MCF-7)) (UniProt Q08050); assay: co-IP; anti-FOXM1 or control IgG immunoprecipitation from total cell lysates (U2OS, HeLa, MCF-7, Cr-Y575F lines), immunoblotting; lysis buffer 150 mM NaCl, 0.5 mM EDTA, 50 mM Tris-HCl pH 8.0, 1% Nonidet P-40; 2 h at 4 °C; some cells treated with imatinib and MG132
T1 sequence: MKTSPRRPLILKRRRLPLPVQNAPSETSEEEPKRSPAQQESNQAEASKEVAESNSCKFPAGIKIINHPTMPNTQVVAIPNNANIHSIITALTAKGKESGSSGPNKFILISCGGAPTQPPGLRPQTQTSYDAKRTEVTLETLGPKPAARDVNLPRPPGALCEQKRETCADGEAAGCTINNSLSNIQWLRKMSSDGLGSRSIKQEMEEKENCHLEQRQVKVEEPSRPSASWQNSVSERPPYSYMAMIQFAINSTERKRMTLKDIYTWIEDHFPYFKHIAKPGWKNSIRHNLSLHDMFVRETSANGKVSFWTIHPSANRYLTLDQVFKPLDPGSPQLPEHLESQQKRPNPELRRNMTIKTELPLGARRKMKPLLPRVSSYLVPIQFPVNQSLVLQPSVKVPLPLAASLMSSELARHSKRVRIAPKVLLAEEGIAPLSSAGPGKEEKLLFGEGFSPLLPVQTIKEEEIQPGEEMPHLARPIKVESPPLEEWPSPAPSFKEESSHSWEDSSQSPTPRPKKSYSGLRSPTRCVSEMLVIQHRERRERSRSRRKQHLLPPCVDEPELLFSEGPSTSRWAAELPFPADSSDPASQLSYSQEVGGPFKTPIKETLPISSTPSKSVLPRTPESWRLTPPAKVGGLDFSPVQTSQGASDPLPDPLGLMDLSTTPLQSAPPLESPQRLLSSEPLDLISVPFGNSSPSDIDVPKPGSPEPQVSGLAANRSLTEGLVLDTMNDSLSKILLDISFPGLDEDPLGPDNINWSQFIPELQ

[2] = target: T1, FOXM1 (human (endogenous in U2OS, HeLa, MCF-7)); assay: proximity ligation; in situ PLA (Duo-Link) in U2OS cells with anti-ABL1 and anti-FOXM1 antibodies; one antibody alone as control
[3] = target: T1, FOXM1 (human (endogenous in U2OS, HeLa, MCF-7)); assay: co-IP; anti-FOXM1 or IgG immunoprecipitation from cytoplasmic or nuclear fractions of HeLa and MCF-7 cells, immunoblotting
Flag-FOXM1 (human) [4] = target: T2, Flag-FOXM1 (human) (UniProt Q08050); assay: co-IP; 293FT cells transfected with the indicated plasmids, immunoprecipitation (anti-FLAG, anti-Myc) and immunoblotting; lysis buffer 150 mM NaCl, 0.5 mM EDTA, 50 mM Tris-HCl pH 8.0, 1% Nonidet P-40; 2 h at 4 °C; with or without imatinib
T2 sequence: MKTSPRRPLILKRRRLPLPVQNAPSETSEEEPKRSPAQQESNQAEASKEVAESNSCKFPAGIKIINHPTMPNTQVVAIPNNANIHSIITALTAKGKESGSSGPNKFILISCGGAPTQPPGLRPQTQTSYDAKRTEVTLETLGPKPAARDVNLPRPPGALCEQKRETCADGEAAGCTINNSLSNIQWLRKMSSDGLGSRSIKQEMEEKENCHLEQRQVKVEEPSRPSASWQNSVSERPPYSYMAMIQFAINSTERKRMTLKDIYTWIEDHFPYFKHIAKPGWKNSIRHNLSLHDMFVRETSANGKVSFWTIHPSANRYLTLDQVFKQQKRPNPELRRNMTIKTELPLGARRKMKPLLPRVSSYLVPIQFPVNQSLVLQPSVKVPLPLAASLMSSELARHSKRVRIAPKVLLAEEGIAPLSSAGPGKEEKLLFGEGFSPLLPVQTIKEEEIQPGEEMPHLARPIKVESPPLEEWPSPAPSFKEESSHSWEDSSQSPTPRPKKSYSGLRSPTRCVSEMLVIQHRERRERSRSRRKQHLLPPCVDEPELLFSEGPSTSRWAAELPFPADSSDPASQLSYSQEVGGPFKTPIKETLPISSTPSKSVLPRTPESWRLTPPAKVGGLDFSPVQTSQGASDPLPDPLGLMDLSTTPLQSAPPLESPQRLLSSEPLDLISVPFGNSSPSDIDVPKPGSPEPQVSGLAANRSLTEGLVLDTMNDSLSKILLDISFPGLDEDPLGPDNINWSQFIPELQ

[5] = target: T3, Flag-FOXM1(Y575F) (human) (UniProt Q08050); assay: as above
T3 sequence: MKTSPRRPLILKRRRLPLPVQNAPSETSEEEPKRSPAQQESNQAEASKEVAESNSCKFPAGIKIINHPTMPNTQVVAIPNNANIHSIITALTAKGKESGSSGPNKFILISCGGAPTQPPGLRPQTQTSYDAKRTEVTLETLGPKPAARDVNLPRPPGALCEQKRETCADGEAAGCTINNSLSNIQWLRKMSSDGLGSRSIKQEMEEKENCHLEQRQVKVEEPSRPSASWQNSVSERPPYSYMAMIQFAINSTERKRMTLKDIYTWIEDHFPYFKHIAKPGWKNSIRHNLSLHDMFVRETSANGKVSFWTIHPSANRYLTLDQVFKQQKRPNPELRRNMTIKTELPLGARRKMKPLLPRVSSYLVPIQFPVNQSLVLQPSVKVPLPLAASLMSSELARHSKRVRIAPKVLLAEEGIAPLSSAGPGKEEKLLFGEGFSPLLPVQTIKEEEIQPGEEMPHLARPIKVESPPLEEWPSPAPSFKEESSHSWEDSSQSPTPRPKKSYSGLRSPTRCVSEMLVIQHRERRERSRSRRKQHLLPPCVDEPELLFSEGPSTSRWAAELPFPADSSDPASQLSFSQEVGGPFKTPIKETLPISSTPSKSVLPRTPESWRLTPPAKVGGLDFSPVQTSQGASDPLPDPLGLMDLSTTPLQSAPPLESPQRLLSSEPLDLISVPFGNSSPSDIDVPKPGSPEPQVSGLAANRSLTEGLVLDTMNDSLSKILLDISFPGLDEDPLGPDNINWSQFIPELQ

[6] = target: T4, endogenous FOXM1(Y575F) (human (endogenous in HeLa, MCF-7)) (UniProt Q08050); assay: co-IP; anti-FOXM1 or control IgG immunoprecipitation from total cell lysates (U2OS, HeLa, MCF-7, Cr-Y575F lines), immunoblotting; lysis buffer 150 mM NaCl, 0.5 mM EDTA, 50 mM Tris-HCl pH 8.0, 1% Nonidet P-40; 2 h at 4 °C; some cells treated with imatinib and MG132
T4 sequence: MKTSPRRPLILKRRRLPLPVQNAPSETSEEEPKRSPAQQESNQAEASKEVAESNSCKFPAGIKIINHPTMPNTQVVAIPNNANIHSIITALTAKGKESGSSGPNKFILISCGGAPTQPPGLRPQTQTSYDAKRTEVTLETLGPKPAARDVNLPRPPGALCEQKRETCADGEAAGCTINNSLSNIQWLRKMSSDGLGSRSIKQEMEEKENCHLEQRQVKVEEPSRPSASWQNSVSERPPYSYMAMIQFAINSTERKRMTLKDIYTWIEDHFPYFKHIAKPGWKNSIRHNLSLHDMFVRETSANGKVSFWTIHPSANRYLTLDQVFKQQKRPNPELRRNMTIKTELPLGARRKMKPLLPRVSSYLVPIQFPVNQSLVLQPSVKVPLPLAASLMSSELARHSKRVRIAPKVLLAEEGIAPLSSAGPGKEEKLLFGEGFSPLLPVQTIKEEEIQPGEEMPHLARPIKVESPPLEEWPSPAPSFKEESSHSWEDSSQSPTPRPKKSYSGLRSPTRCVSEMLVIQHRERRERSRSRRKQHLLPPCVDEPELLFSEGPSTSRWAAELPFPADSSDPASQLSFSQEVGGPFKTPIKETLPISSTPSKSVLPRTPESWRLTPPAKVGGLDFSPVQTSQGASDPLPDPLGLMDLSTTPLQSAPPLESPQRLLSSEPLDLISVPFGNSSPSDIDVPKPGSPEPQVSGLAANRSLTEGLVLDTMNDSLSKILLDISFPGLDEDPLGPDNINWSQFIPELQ

Flag-FOXM1 (human) [7] = target: T2, Flag-FOXM1 (human); assay: far-Western, overlay or dot blot; anti-Flag immunoprecipitate of 293FT cells (Flag-FOXM1 with Myc-ABL1), with or without PTPase at 37 °C for 2 h, resolved by SDS-PAGE and blotted; membrane incubated with purified soluble GST-ABL1 SH2, GST-ABL1 SH3 or GST at 4 °C overnight, detected with …; both purified
[8] = target: T5, FOXM1 N-terminal repressor domain (NRD, aa 1-234) (human) (UniProt Q08050); assay: co-IP; 293FT cells transfected with the indicated plasmids, immunoprecipitation (anti-FLAG, anti-Myc) and immunoblotting; lysis buffer 150 mM NaCl, 0.5 mM EDTA, 50 mM Tris-HCl pH 8.0, 1% Nonidet P-40; 2 h at 4 °C; with or without imatinib
T5 sequence: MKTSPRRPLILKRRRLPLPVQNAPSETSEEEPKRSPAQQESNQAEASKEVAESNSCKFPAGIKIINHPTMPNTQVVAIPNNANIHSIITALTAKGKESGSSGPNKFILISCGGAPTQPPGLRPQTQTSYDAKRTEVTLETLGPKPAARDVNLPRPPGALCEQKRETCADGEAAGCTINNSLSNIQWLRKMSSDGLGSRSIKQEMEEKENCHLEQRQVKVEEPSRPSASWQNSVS

FOXM1 aa 322-600 (human) = target: T6, FOXM1 aa 322-600 (human) (UniProt Q08050); assay: as above
T6 sequence: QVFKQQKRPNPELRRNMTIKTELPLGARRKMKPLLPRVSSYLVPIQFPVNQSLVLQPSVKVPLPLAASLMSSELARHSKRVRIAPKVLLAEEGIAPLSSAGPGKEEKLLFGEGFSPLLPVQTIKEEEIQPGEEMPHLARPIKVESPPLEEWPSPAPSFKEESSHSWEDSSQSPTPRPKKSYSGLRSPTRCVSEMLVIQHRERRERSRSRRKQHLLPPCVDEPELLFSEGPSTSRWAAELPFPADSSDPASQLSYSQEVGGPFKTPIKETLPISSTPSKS

GST-ABL1 SH3 (human) = GST-ABL1 SH3 (human) (UniProt P00519); assay: pull-down; GST fusion or GST bound to glutathione-Sepharose resin, incubated with 293FT lysate holding Flag-tagged FOXM1 for 2 h at 4 °C, washed 3 times with lysis buffer, immunoblotting; only the target purified
GST-ABL1 SH2 (human) = GST-ABL1 SH2 (human) (UniProt P00519); assay: as above

binding [1]: binds
binding [2]: binds
binding [3]: binds
Molecule: ABL1 (from UniProt P00519 1-1130)

binding (Flag-FOXM1 (human) [4]): binds
binding [5]: binds
Molecule: CDH1 in 293FT cells (from UniProt Q9UM11 1-496)

binding [1]: binds
binding [6]: binds
Molecule: CDH1, a coactivator of the E3 ubiquitin ligase anaphase-promoting complex/cyclosome (APC/C) (from UniProt Q9UM11 1-496)

binding (Flag-FOXM1 (human) [7]): binds
Molecule: GST-ABL1 SH2 (from UniProt P00519 127-217) (domain or fragment)

binding (Flag-FOXM1 (human) [7]): binds
Molecule: GST-ABL1 SH3 (from UniProt P00519 61-121) (domain or fragment)

binding (Flag-FOXM1 (human) [4]): binds
binding [8]: binds
binding (FOXM1 aa 322-600 (human)): binds
Molecule: Myc-ABL1 (from UniProt P00519-2 1-1149)

binding (GST-ABL1 SH3 (human)): binds
binding (GST-ABL1 SH2 (human)): binds
B1: Flag-FOXM1 (protein, UniProt Q08050-2 1-748)
chain: MKTSPRRPLILKRRRLPLPVQNAPSETSEEEPKRSPAQQESNQAEASKEVAESNSCKFPAGIKIINHPTMPNTQVVAIPNNANIHSIITALTAKGKESGSSGPNKFILISCGGAPTQPPGLRPQTQTSYDAKRTEVTLETLGPKPAARDVNLPRPPGALCEQKRETCADGEAAGCTINNSLSNIQWLRKMSSDGLGSRSIKQEMEEKENCHLEQRQVKVEEPSRPSASWQNSVSERPPYSYMAMIQFAINSTERKRMTLKDIYTWIEDHFPYFKHIAKPGWKNSIRHNLSLHDMFVRETSANGKVSFWTIHPSANRYLTLDQVFKQQKRPNPELRRNMTIKTELPLGARRKMKPLLPRVSSYLVPIQFPVNQSLVLQPSVKVPLPLAASLMSSELARHSKRVRIAPKVLLAEEGIAPLSSAGPGKEEKLLFGEGFSPLLPVQTIKEEEIQPGEEMPHLARPIKVESPPLEEWPSPAPSFKEESSHSWEDSSQSPTPRPKKSYSGLRSPTRCVSEMLVIQHRERRERSRSRRKQHLLPPCVDEPELLFSEGPSTSRWAAELPFPADSSDPASQLSYSQEVGGPFKTPIKETLPISSTPSKSVLPRTPESWRLTPPAKVGGLDFSPVQTSQGASDPLPDPLGLMDLSTTPLQSAPPLESPQRLLSSEPLDLISVPFGNSSPSDIDVPKPGSPEPQVSGLAANRSLTEGLVLDTMNDSLSKILLDISFPGLDEDPLGPDNINWSQFIPELQ
